{"source": "PubChem BioAssay AID686937 | Drosophila RNAi Screening Center | 2013", "test": "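Genes in the fly needed for secretion of protein constitutively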 (primary screen)", "cell system": "Drosophila S2 cells expressing secreted horseradish peroxidase", "reagent": "long dsRNA against Drosophila genes", "timing": "about 5.5 days (5 days dsRNA, then 12 h reporter induction)", "challenge": "reporter expression induced after 5 days of dsRNA, read 12 h later; inducer not stated", "measured": "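Chemiluminescent measurement of peroxidase in the medium 12 h after reporter induction, following 5 days of dsRNA, given as a z-score per plate; higher means more secretion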", "direction": "z-score: higher = more reporter secreted into medium", "note": "The deposit covers about 23,000 reagents; below is an unselected part of those with a known target gene and a result. 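Reduced-secretion tags in replicate 1 do not always agree with the z-scores; no criterion for assigning the tags was given.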 Not all columns of the deposit are shown. Not stated in the record: the amount of reagent."}
{"Target gene": "crol", "amplicon": "DRSC03514", "z-score, replicate 1": 0.03}
{"Target gene": "crol", "amplicon": "DRSC21348", "z-score, replicate 1": 0.12}
{"Target gene": "Cisd2", "amplicon": "DRSC14904", "z-score, replicate 1": 0.24}
{"Target gene": "CG33181", "amplicon": "DRSC17971", "z-score, replicate 1": 0.31}
{"Target gene": "CG33181", "amplicon": "DRSC22376", "z-score, replicate 1": 0.06}
{"Target gene": "CG14346", "amplicon": "DRSC00376", "z-score, replicate 1": 0.36}
{"Target gene": "boly", "amplicon": "DRSC21629", "z-score, replicate 1": -0.9}
{"Target gene": "ZAP3", "amplicon": "DRSC17852", "z-score, replicate 1": 0.5}
{"Target gene": "ZAP3", "amplicon": "DRSC17853", "z-score, replicate 1": 0.25}
{"Target gene": "ZAP3", "amplicon": "DRSC18249", "z-score, replicate 1": 0.26}
{"Target gene": "Syx18", "amplicon": "DRSC14628", "z-score, replicate 1": -2.85}
{"Target gene": "yrt", "amplicon": "DRSC16559", "z-score, replicate 1": 0.3}
{"Target gene": "Hsc70-2", "amplicon": "DRSC16710", "z-score, replicate 1": 0.59}
{"Target gene": "S6k", "amplicon": "DRSC11276", "z-score, replicate 1": -0.39}
{"Target gene": "schuy", "amplicon": "DRSC10284", "z-score, replicate 1": 0.37}
{"Target gene": "app", "amplicon": "DRSC09159", "z-score, replicate 1": 0.38}
{"Target gene": "app", "amplicon": "DRSC10246", "z-score, replicate 1": 0.28}
{"Target gene": "app", "amplicon": "DRSC10526", "z-score, replicate 1": 0.46}
{"Target gene": "CG11313", "amplicon": "DRSC14295", "z-score, replicate 1": 0.31}
{"Target gene": "CG32301", "amplicon": "DRSC08613", "z-score, replicate 1": -0.01}
{"Target gene": "Rnmt", "amplicon": "DRSC03558", "z-score, replicate 1": -0.11}
{"Target gene": "Rpp30", "amplicon": "DRSC00320", "z-score, replicate 1": -0.09}
{"Target gene": "Rdh1", "amplicon": "DRSC06812", "z-score, replicate 1": 0.2}
{"Target gene": "Asph", "amplicon": "DRSC06783", "z-score, replicate 1": 0.56}
{"Target gene": "Asph", "amplicon": "DRSC07171", "z-score, replicate 1": 0.37}
{"Target gene": "xmas", "amplicon": "DRSC21306", "z-score, replicate 1": -2.28}
{"Target gene": "xmas", "amplicon": "DRSC22178", "z-score, replicate 1": -0.41}
{"Target gene": "Mccc2", "amplicon": "DRSC04987", "z-score, replicate 1": 0.16}
{"Target gene": "vlc", "amplicon": "DRSC04922", "z-score, replicate 1": 0.03}
{"Target gene": "CR33283", "amplicon": "DRSC22918", "z-score, replicate 1": -0.82}
{"Target gene": "FER", "amplicon": "DRSC12735", "z-score, replicate 1": 0.03}
{"Target gene": "FER", "amplicon": "DRSC16673", "z-score, replicate 1": 0.33}
{"Target gene": "CG43736", "amplicon": "DRSC18370", "z-score, replicate 1": -0.01}
{"Target gene": "CG43736", "amplicon": "DRSC18371", "z-score, replicate 1": 0.3}
{"Target gene": "ND5 (retired record)", "amplicon": "DRSC21281", "z-score, replicate 1": 0.25}
{"Target gene": "vap", "amplicon": "DRSC20275", "z-score, replicate 1": 0.04}
{"Target gene": "CG42331", "amplicon": "DRSC14633", "z-score, replicate 1": -0.01}
{"Target gene": "CG42331", "amplicon": "DRSC16126", "z-score, replicate 1": 0.39}
{"Target gene": "CG43191", "amplicon": "DRSC05326", "z-score, replicate 1": 0.24}
{"Target gene": "Dref", "amplicon": "DRSC03319", "z-score, replicate 1": -0.96}
{"Target gene": "CG11597", "amplicon": "DRSC09847", "z-score, replicate 1": 0.7}
{"Target gene": "CG6136", "amplicon": "DRSC15975", "z-score, replicate 1": 0.16}
{"Target gene": "Or69a", "amplicon": "DRSC11243", "z-score, replicate 1": 0.05}
{"Target gene": "CG10681", "amplicon": "DRSC09777", "z-score, replicate 1": 0.21}
{"Target gene": "CG10681", "amplicon": "DRSC21484", "z-score, replicate 1": 0.38}
{"Target gene": "CG33136", "amplicon": "DRSC05744", "z-score, replicate 1": 0.23}
{"Target gene": "CG34296", "amplicon": "DRSC13961", "z-score, replicate 1": -0.95}
{"Target gene": "Osi16", "amplicon": "DRSC12135", "z-score, replicate 1": 0.51}
{"Target gene": "Osi16", "amplicon": "DRSC21323", "z-score, replicate 1": 1.52}
{"Target gene": "Dhc98D", "amplicon": "DRSC16645", "z-score, replicate 1": 0.3}
{"Target gene": "Msr-110", "amplicon": "DRSC11227", "z-score, replicate 1": 0.8}

Part of the list above, set out differently:
Target gene | amplicon | z-score, replicate 1
FER | DRSC12735 | 0.03
FER | DRSC16673 | 0.33
CG43736 | DRSC18370 | -0.01
CG43736 | DRSC18371 | 0.3
